Test results taken from PubChem BioAssay AID2685 (National Center for Advancing Translational Sciences (NCATS), 2010).
Screen size: about 320,000 compounds; about 2,100 (0.66%) were called active. The shares of active, inactive and inconclusive entries below differ from those in the screen. Calls follow the shape of the dose curve; as a rule, active = well fitted inhibition curve with a large enough effect in the signal ratio, with a control signal flat (not every such curve was filed as active); inconclusive = small, poorly fitted or top-dose-only effect, or effect the other way, or a change in a side signal; inactive = flat fitted curve, though single readings scatter; the % refers to the signal ratio. Potencies of inconclusive entries are doubtful fits and often do not repeat.

Test: qHTS Assay for Lipid Storage Modulators in Drosophila S3 Cells
Conditions: BODIPY lipid droplet fluorescence, 18-24 h, cells fed with added oleic acid; lipid storage change, negative = inhibition: at 46.1 µM (top of the series) unless noted
In short: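 Laser-scanning cytometry quantifies lipid droplet accumulation (500–530 nm total intensity; droplet/cell object ratio) in oleic acid-fed (400 uM added) Drosophila S3 cells treated with a concentration series. 20 uM Triacsin C defined 100% inhibition.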
% is scaled to controls: 0 for no effect and ±100 for the full control effect; potency is read from the fitted curve at half-maximal effect.

SMILES	lipid storage change, negative = inhibition	Potency
CCN1C(=O)[C@H]2[C@@H](c3ccc(C)cc3)N3C(=O)N(c4ccc(C(F)(F)F)cc4)C(=O)[C@@]3(Cc3ccccc3)[C@H]2C1=O	inconclusive: -34.6%	
COc1ccc(N2CCCn3c2nc2c3c(=O)n(Cc3ccccc3F)c(=O)n2C)c(OC)c1	inconclusive: 21.1% [at 9.22 µM]	
CCCOC(=O)C1=C(C)NC2=C(C(=O)CCC2)C1c1cccc(OC)c1OC (centres undefined)	inconclusive: 9.53%	
CCCCNC(=S)N(CCN(CC)CC)Cc1cc2cc3c(cc2[nH]c1=O)OCO3	inconclusive: 38.3%	
NS(=O)(=O)c1ccc(NC(=S)NCCc2ccccc2)cc1	inconclusive: 8.43%	
COc1ccc(C(=O)C2CCCN(C(=O)c3noc4c3CCCC4)C2)c(C)c1 (centres undefined)	inconclusive: -42.7%	
O=C(O)/C=C\C(=O)NCc1cccnc1	inconclusive: 77.4%	
CC1=C/C(=N\N=C2\NC(=O)C(CC(=O)Nc3ccccc3F)S2)CC(C)(C)C1 (centres undefined)	inconclusive: -30.5%	
CCc1nnc(NC(=O)CN2CCN(Cc3cccc(OC)c3)CC2)s1	inconclusive: 0.46%	
CC(CNC(=O)CN1C(=O)NC2(CCCCC2C)C1=O)c1ccccc1 (centres undefined)	inactive	
Cc1ccc(N2CC(C(N)=O)CC2=O)cc1 (centres undefined)		inconclusive: 0.58 µM [falling, partial curve, poor fit]
COc1ccc(NC(=O)COc2ccc(C(=O)NC3CCCc4ccccc43)cc2OC)cc1 (centres undefined)		inconclusive: 0.231 µM [activator, full curve]
Cc1ccc(C(=O)Nc2ccc(S(=O)(=O)N3CCCC3)cc2)s1		inconclusive: 1.46 µM [activator, partial curve, poor fit]
COc1cc(NC(=O)c2ccc([N+](=O)[O-])o2)ccc1NC(=O)c1ccco1		active: 8.2 µM
NNC(=S)Nc1cccc(-c2n[nH]c(=S)o2)c1	inconclusive: -9.01%	
Cc1cccc(NC(=O)NNC(=O)c2cc3occc3[nH]2)c1C	inconclusive: 58.5%	
CC(=O)NC(Cc1ccccc1C)C(=O)NC1CCN(C(=O)c2cccc(C)c2)CC1 (centres undefined)	inconclusive: 27.5%	
CC(=O)c1ccc(NS(=O)(=O)c2ccc(N)cc2)cc1	inconclusive: 3.19%	
CCc1cc(C(=O)Nc2nc(-c3ccccn3)cs2)sc1C		active: 5.17 µM
O=C(C1CCN(S(=O)(=O)c2ccccc2F)CC1)N1CCN(Cc2ccc3c(c2)OCO3)CC1	inactive	
COc1ccc(O)c(/C=C2/SC(=S)N(Cc3ccccc3)C2=O)c1		inconclusive: 13 µM [falling, partial curve]
O=C(O)C1CCCCC1C(=O)NCCCc1ccccc1 (centres undefined)	inactive	
O=C(c1cc2ccccc2o1)N(C1CC1)C1(C(=O)Nc2ccccc2)CCCC1	inconclusive: 15.8%	
O=S(=O)(CC(CN1CCCCC1)N1CCCCC1)c1ccccc1 (centres undefined)	inconclusive: -18.3%	
O=C(COC(=O)c1cc([N+](=O)[O-])ccc1N1CCOCC1)NCc1ccc(F)cc1	inconclusive: -12.7%	
CN(C)CCNC(=O)NC(=O)c1ccc(Cl)cc1	inconclusive: 7.16%	
CC(C)(C)CN1CCN(CCCc2ccccc2)C(CCO)C1 (centres undefined)		inconclusive: 0.58 µM [activator, full curve, poor fit]

One compound at a time, from the list above.
CC(CNC(=O)CN1C(=O)NC2(CCCCC2C)C1=O)c1ccccc1 (centres undefined) in the list: lipid storage change, negative = inhibition: inactive
COc1cc(NC(=O)c2ccc([N+](=O)[O-])o2)ccc1NC(=O)c1ccco1 in the list: Potency: active: 8.2 µM
CCCCNC(=S)N(CCN(CC)CC)Cc1cc2cc3c(cc2[nH]c1=O)OCO3 in the list: lipid storage change, negative = inhibition: inconclusive: 38.3%

(further entries)

SMILES	lipid storage change, negative = inhibition	Potency
Cc1ccc2nc(-c3ccc(O)c(O)c3)cn2c1	inconclusive: -13.9%	
CC1CCCN(S(=O)(=O)c2ccc(N(C(=O)c3cnccn3)C(C(=O)NC3CCCCC3)c3cccs3)cc2)C1 (centres undefined)	inconclusive: 4.72%	
CCOC(=O)CSc1nc(NCc2ccco2)c2ccccc2n1		inconclusive: 0.116 µM [falling, full curve]
CN(CCC#N)S(=O)(=O)c1ccc2[nH]cc(C(=O)NCCc3ccccc3)c(=O)c2c1	inconclusive: 30.9%	
Cc1ccc(/C=N/N=C/c2ccc(C)s2)s1	inconclusive: 26.3%	
CCOC(=O)C1(Cc2ccccc2)CCN(Cc2cccc3nccnc23)CC1	inconclusive: 12.6%	
O=C(NCc1cc([N+](=O)[O-])ccc1O)c1cc(-c2ccncc2)nc2ccccc12		inconclusive: 29.1 µM [activator, single point]
COc1cc(NC(=O)COc2cccc3c2OC(C)(C)C3)cc(OC)c1OC	inconclusive: 24.2%	
Cc1cccc(NC(=O)CSCC(=O)Nc2ccc(S(=O)(=O)N3CCOCC3)cc2)c1	inconclusive	
O=C(Nc1ccc(N2CCOCC2)cc1)c1ccc(Cl)cc1N1CCCC1=O		inconclusive: 29.1 µM [activator, single point]
CC(=O)Oc1ccc2c(=O)c(Oc3ccccc3[N+](=O)[O-])coc2c1	inconclusive: -23.1%	
COc1ccc(C(=O)N2CCCc3ccccc32)cc1Br		inconclusive: 29.1 µM [activator, partial curve]
COc1ccc2oc(=O)c(C(=O)NCc3ccccc3)cc2c1	inconclusive: 11.2%	
Cc1ccc(C2C3C(=O)N(c4ccc(C)cc4)C(=O)C3N3CCCN23)cc1 (centres undefined)	inconclusive: 7.75%	
CC(=O)Nc1ccccc1C(=O)N1CC2(C)CC1CC(C)(C)C2 (centres undefined)	inconclusive: -70.6%	
CCN(CC(=O)Nc1ccc(NC(C)=O)cc1)C(=O)c1cccc(S(=O)(=O)N2CCc3ccccc3C2)c1	inconclusive: 39%	
CCOc1ccc2cc(C#N)c(SCC(=O)OC)nc2c1	inconclusive: 63.3%	
Cc1ccc(Nc2nnc(SCC(=O)NC(Cc3c[nH]c4ccccc34)C(=O)O)s2)cc1 (centres undefined)	inconclusive: 15.5% [at 9.22 µM]	
CCn1c(=O)c(C(=O)NNS(=O)(=O)c2ccc(NC(=O)OC)cc2)c(O)c2ccccc21	inconclusive: 31%	
Cc1[nH]n(-c2ccccc2)c(=O)c1/C=N/N1C(=O)c2ccc3c4c(ccc(c24)C1=O)CC3		inconclusive: 29.1 µM [falling, single point]
O=C(/C=C/c1nc2ccccc2s1)N1CCCCCC1	inconclusive: 9.38%	
COC(=O)c1cccc(Oc2cccc(C(F)(F)F)c2)n1		inconclusive: 3.66 µM [falling, full curve]
CC(=O)OC(C(=O)NCc1ccco1)c1ccncc1 (centres undefined)	inconclusive: -23.8%	
O=C(CSc1nc(C2CC2)nc2c1cnn2-c1ccccc1)Nc1c[nH]c(=O)[nH]c1=O		inconclusive: 29.1 µM [cytotoxic, single point]
CN1CCN(C(=O)c2cc3nc(-c4ccc(F)cc4)cc(C(F)(F)F)n3n2)CC1	inconclusive: -23.1%	
CCC(Cc1ccccc1)NS(=O)(=O)c1c(C)nc2sccn2c1=O (centres undefined)	inconclusive: -27.9%	
COc1ccccc1Nc1nc(N)nc(CSC(=S)N2CCCCC2)n1	inconclusive: 17%	

SMILES	lipid storage change, negative = inhibition	Potency
O=C(COC(=O)COc1ccc(Nc2ccccc2)cc1)NCc1ccco1	inactive	
Cc1ccccc1NC(=O)C(=O)NC(C)CCc1ccccc1 (centres undefined)		active: 7.31 µM
CCC(CC)C(=O)NCCc1cc2ccc(C)c(C)c2[nH]c1=O	inactive	
COc1ccc(S(=O)(=O)Nc2ccc(OCC(=O)O)cc2)c2ccccc12		inconclusive: 29.1 µM [falling, single point]
Cc1cc(NNC(=O)Nc2cccc(Cl)c2)nc2c1c(C)nn2C	inconclusive: -43.2%	
COCCn1c(-c2ccccc2)nc2c(c(=O)c3ccccc3n2C)c1=O	inconclusive: 24.2%	
CCc1nnc(NS(=O)(=O)c2ccc(NC(=O)c3ccco3)cc2)s1	inactive	
O=C(CN(Cc1ccccc1C(F)(F)F)C(=O)CNC(=O)c1ccco1)NC1CCCC1		inconclusive: 29.1 µM [falling, single point]
CCOc1ccc(NC(=O)CCC(=O)Oc2ccc(C)cc2)cc1	inconclusive: -34.5%	
Nc1ccc2oc(CCc3ccccc3)nc2c1	inconclusive: -12.1%	
NC(=O)c1ccc(Oc2ncc(C(F)(F)F)cc2Cl)cc1		inconclusive: 3.26 µM [falling, single point]
COc1ccc(C2SCCN2C(=S)Nc2cccc(C(F)(F)F)c2)cc1 (centres undefined)	inconclusive: -23.3%	
O=C1CCc2cc(S(=O)(=O)N3CCCC3C(=O)N3CCN(c4ccccc4F)CC3)ccc2N1 (centres undefined)		inconclusive: 2.06 µM [falling, partial curve]
c1ccc(C2[C@H]3CN(CC4CCCCC4)[C@H](c4ccccc4)C34CC2(c2cccnc2)C4)cc1 (some centres undefined)	inconclusive: 14%	
Oc1ccc(Cl)cc1CNCC1CCCCC1	inconclusive: 14.6%	
O=C(Nc1ccc(CN2CCCCC2)cc1)Nc1ccc(Br)cc1Cl	inconclusive: 33%	
COc1ccc(-c2[nH]ncc2/C=C(\C#N)C(=O)NC2CC2)cc1		inconclusive: 0.058 µM [activator, full curve, poor fit]
C=C(C)c1nc2cc(OC)c(OC)cc2c(=O)o1	inconclusive: 7.86%	
O=c1ccc(N=Nc2ccccc2)ccc1O	inconclusive: -12.4%	
Cc1ccc(C)c(NC(=O)CN(C)C(=O)[C@@H](NC(=O)c2ccc(C(C)(C)C)cc2)C(C)C)c1		inconclusive: 18.4 µM [cytotoxic, single point]
CNc1nc(-c2ccccc2)cc(-c2ccccc2)n1	inconclusive: 16.2%	
CCn1nc(NC(=O)c2ccccn2)c2cc3cccc(C)c3nc21	inconclusive: -3.31%	
Cc1ccc(/C=C/C(O)=C2/C(=O)N(C)C3(C)CC2c2ccccc2O3)cc1 (centres undefined)	inconclusive: -65.9%	
CCOC(=O)C1CCN(C(=O)c2ccc3c(c2)C(=O)N(c2ccccc2C)C3=O)CC1	inconclusive: 23.8%	
N#CCCSc1nc(N2CCOCC2)c2c(c1C#N)CCCC2	inconclusive: 104%	
